# Reference: PubChem BioAssay AID328 (DTP/NCI, 2004)
# The list shows only some results of the screen, not a fair sample: it gathers tests that were run many times, whatever their T/C, doses with no T/C, and many T/C values between a quarter and a half above the control. Further doses and runs are listed elsewhere. T/C: endpoint of the treated group in % of that of the vehicle group. Some entries give survivors of the animals treated and no T/C: the source holds a T/C of zero for them, seemingly a mark for toxic or unscored doses. Some doses without a T/C left all or most animals alive at the check, yet need not have been tolerated: survival well below the control is almost never listed, so the zero probably covers shortened survival too. Survivors were counted at the toxicity check, usually on the fifth day, unless a day is given; later deaths do not show. Schedules are NCI's codes, taken here to give the interval after Q, in days (D) or hours (H), and the number of doses after X. Where survival is the endpoint, the PubChem record calls one and a half times the control and up active, and a quarter to a half above the control has no call in these data; cut-offs in other NCI protocols can differ. Some entries were tested several times; the results are listed from low to high. Some T/C values are followed by the survivors on the day toxicity was checked, most often the fifth; where none is given, no animal had died by that day.
# System: BDF1 mice, P388 leukemia ip, median survival T/C
# Assay: NCI In Vivo Anticancer Drug Screen. Data for tumor model P388 Leukemia (intraperitoneal) in B6D2F1 (BDF1) mice
# Conditions: T/C endpoint: median survival time, higher T/C = longer survival
# How it was run: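 Steps: implant the tumour, treat one group with compound and another with vehicle, record survival, then divide treated by control.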
# [1] = dose: 100.0 mg/kg/injection, schedule: Q04DX003 (ip), vehicle: saline with Tween-80
# [2] = dose: 200.0 mg/kg/injection, schedule: Q01DX009 (ip), vehicle: saline with Tween-80
# [3] = dose: 25.0 mg/kg/injection, schedule: Q01DX009 (ip), vehicle: saline
# [4] = dose: 50.0 mg/kg/injection, schedule: Q01DX009 (ip), vehicle: saline
# [5] = dose: 200.0 mg/kg/injection, schedule: Q01DX009 (ip), vehicle: saline
# [6] = dose: 200.0 mg/kg/injection, schedule: Q04DX003 (ip), vehicle: saline
# [7] = dose: 400.0 mg/kg/injection, schedule: Q01DX009 (ip), vehicle: Klucel (hydroxypropylcellulose) (HPC)
smiles,measurement,setting,value
CC(=O)n1cc(F)c(=O)[nH]c1=O,T/C,"dose: 0.85 mg/kg/injection, schedule: Q01DX009 (ip), vehicle: saline",137 % of control
same,T/C,"dose: 1.3 mg/kg/injection, schedule: Q01DX009 (ip), vehicle: saline",125 % of control
same,T/C,"dose: 3.12 mg/kg/injection, schedule: Q01DX009 (ip), vehicle: saline with Tween-80",130 % of control
same,T/C,"dose: 4.8 mg/kg/injection, schedule: Q01DX009 (ip), vehicle: saline with Tween-80",145 % of control
same,T/C,"dose: 15.0 mg/kg/injection, schedule: Q04DX003 (ip), vehicle: saline",127 % of control
same,survivor count,"dose: 25.0 mg/kg/injection, schedule: Q01DX010 (ip), vehicle: saline with Tween-80",5 of 6
same,T/C,"dose: 25.0 mg/kg/injection, schedule: Q04DX003 (ip), vehicle: saline with Tween-80",133 and 135 % of control
same,T/C,"dose: 30.0 mg/kg/injection, schedule: Q04DX003 (ip), vehicle: saline",145 % of control
same,T/C,"dose: 45.0 mg/kg/injection, schedule: Q04DX003 (ip), vehicle: other",129 % of control
same,survivor count,"dose: 50.0 mg/kg/injection, schedule: Q01DX010 (ip), vehicle: saline with Tween-80",6 of 6
same,T/C,"dose: 50.0 mg/kg/injection, schedule: Q04DX003 (ip), vehicle: saline with Tween-80",147 % of control
same,T/C,"dose: 65.0 mg/kg/injection, schedule: Q04DX003 (ip), vehicle: other",133 % of control
same,survivor count,"dose: 75.0 mg/kg/injection, schedule: Q01DX009 (ip), vehicle: saline",6 of 6
same,survivor count,"dose: 100.0 mg/kg/injection, schedule: Q01DX010 (ip), vehicle: saline with Tween-80",6 of 6
same,T/C,[1],133 [5 of 6 alive] and 145 % of control
same,survivor count,"dose: 115.0 mg/kg/injection, schedule: Q01DX009 (ip), vehicle: saline",6 of 6
same,survivor count,"dose: 170.0 mg/kg/injection, schedule: Q01DX009 (ip), vehicle: saline",6 of 6
same,survivor count,"dose: 200.0 mg/kg/injection, schedule: Q01DX010 (ip), vehicle: saline with Tween-80",6 of 6
same,survivor count,"dose: 200.0 mg/kg/injection, schedule: Q04DX003 (ip), vehicle: saline with Tween-80",6 of 6
COc1ccc(OC)c(C(=O)C[n+]2ccccc2)c1,survivor count,"dose: 12.5 mg/kg/injection, schedule: Q01DX009 (ip), vehicle: saline with Tween-80",6 of 6
CCOC(=O)c1c[nH]c2cc(Cl)ccc2c1=O,survivor count,"dose: 150.0 mg/kg/injection, schedule: Q04DX003 (ip), vehicle: Klucel (hydroxypropylcellulose) (HPC)",6 of 6
same,survivor count,"dose: 300.0 mg/kg/injection, schedule: Q04DX003 (ip), vehicle: Klucel (hydroxypropylcellulose) (HPC)",6 of 6
Cc1ccc(S(=O)(=O)Nc2ccccc2)c(CC(O)(c2ccccc2)c2ccccc2)c1,survivor count,[2],4 of 6
Cn1cc(C=O)c2nccnc21,survivor count,"dose: 3.12 mg/kg/injection, schedule: Q01DX009 (ip), vehicle: saline",6 of 6
same,survivor count,[3],6 of 6
same,survivor count,[4],6 of 6
same,survivor count,[2],3 of 6
same,survivor count,"dose: 300.0 mg/kg/injection, schedule: Q01DX009 (ip), vehicle: saline with Tween-80",0 of 6
S=c1nn[nH]n1-c1ccccc1.[Zn+2],survivor count,[2],2 of 6
Clc1ncc(Br)c(Cl)n1,T/C,"dose: 6.25 mg/kg/injection, schedule: Q01DX009 (ip), vehicle: Klucel (hydroxypropylcellulose) (HPC)",130 % of control
same,T/C,"dose: 12.5 mg/kg/injection, schedule: Q01DX009 (ip), vehicle: Klucel (hydroxypropylcellulose) (HPC)",135 % of control
same,survivor count,"dose: 25.0 mg/kg/injection, schedule: Q01DX009 (ip), vehicle: Klucel (hydroxypropylcellulose) (HPC)",2 of 6
same,survivor count,"dose: 185.0 mg/kg/injection, schedule: Q04DX003 (ip), vehicle: Klucel (hydroxypropylcellulose) (HPC)",4 of 6
O=C(O)C1CCCC2C(O)CCC(=O)C12 (configuration not stated),survivor count,"dose: 50.0 mg/kg/injection, schedule: Q01DX009 (ip), vehicle: saline with Tween-80",0 of 6
CC(Br)C1(c2cccc([N+](=O)[O-])c2)OCCO1 (configuration not stated),survivor count,"dose: 200.0 mg/kg/injection, schedule: Q01DX001 (ip), vehicle: Klucel (hydroxypropylcellulose) (HPC)",1 of 6
same,survivor count,"dose: 400.0 mg/kg/injection, schedule: Q01DX001 (ip), vehicle: Klucel (hydroxypropylcellulose) (HPC)",0 of 6
CN1CCC(OC(N)=O)CC1,T/C,[5],127 % of control
CC[C@@H](c1ccc(O)cc1)[C@@H](CC)c1ccc(O)cc1,survivor count,[5],4 of 6
same,survivor count,"dose: 400.0 mg/kg/injection, schedule: Q04DX003 (ip), vehicle: alcohol",1 of 6
CCCCN(C)N=Nc1ccc(CCC(=O)OCC)cc1,T/C,[1],136 % of control
same,T/C,"dose: 266.0 mg/kg/injection, schedule: Q04DX003 (ip), vehicle: saline with Tween-80",134 and 136 % of control
same,T/C,"dose: 400.0 mg/kg/injection, schedule: Q04DX003 (ip), vehicle: saline with Tween-80",146 % of control
same,survivor count,"dose: 600.0 mg/kg/injection, schedule: Q04DX003 (ip), vehicle: saline with Tween-80",6 of 6
C[N+](C)(C)c1ncnc2nc[nH]c12,survivor count,"dose: 400.0 mg/kg/injection, schedule: Q01DX001 (ip), vehicle: saline",3 of 6
Nc1ccc(C(=O)Nc2ccc(N(CCCl)CCCl)cc2)cc1,T/C,"dose: 12.5 mg/kg/injection, schedule: Q04DX003 (ip), vehicle: saline",135 % of control
same,T/C,[4],137 % of control
same,T/C,"dose: 100.0 mg/kg/injection, schedule: Q01DX009 (ip), vehicle: saline",129 % of control [5 of 6 alive]
same,survivor count,"dose: 100.0 mg/kg/injection, schedule: Q04DX003 (ip), vehicle: saline",6 of 6
same,survivor count,"dose: 150.0 mg/kg/injection, schedule: Q01DX009 (ip), vehicle: saline",3 of 6
same,survivor count,[6],4 of 6
C/C(Cc1ccccc1)=N\O,survivor count,"dose: 400.0 mg/kg/injection, schedule: Q01DX009 (ip), vehicle: saline with Tween-80",3 of 6
COc1cc2c(cc1OC)-c1cc3cc(OC)c(OC)cc3c(C)[n+]1CC2,survivor count,"dose: 100.0 mg/kg/injection, schedule: Q01DX009 (ip), vehicle: Klucel (hydroxypropylcellulose) (HPC)",0 of 3
same,survivor count,"dose: 200.0 mg/kg/injection, schedule: Q01DX009 (ip), vehicle: Klucel (hydroxypropylcellulose) (HPC)",0 of 3
same,survivor count,[7],0 of 3
CC(=O)OCCC/C(=C\c1ccc2ccccc2c1)[N+](=O)[O-],survivor count,[7],6 of 6
COc1cc2cc[n+](C)cc2cc1OC,T/C,"dose: 50.0 mg/kg/injection, schedule: Q04DX003 (ip), vehicle: saline",127 % of control
same,survivor count,[5],3 of 6
same,survivor count,[6],5 of 6
CC(CS(=O)(=O)O)NC(CO)(CO)CO (configuration not stated),survivor count,[5],6 of 6
O=NN(CCCl)C(=O)NCC1CCC(CNC(=O)N(CCCl)N=O)CC1 (configuration not stated),T/C,"dose: 11.7 mg/kg/injection, schedule: Q01DX009 (ip), vehicle: other",136 % of control
same,T/C,"dose: 17.6 mg/kg/injection, schedule: Q01DX009 (ip), vehicle: other",131 % of control
same,T/C,"dose: 44.0 mg/kg/injection, schedule: Q04DX003 (ip), vehicle: saline sonified",135 % of control
same,T/C,"dose: 200.0 mg/kg/injection, schedule: Q01DX009 (ip), vehicle: other",125 % of control
same,survivor count,"dose: 400.0 mg/kg/injection, schedule: Q01DX009 (ip), vehicle: other",0 of 6
same,T/C,"dose: 400.0 mg/kg/injection, schedule: Q04DX003 (ip), vehicle: saline sonified",130 % of control
NNc1cccc(Cl)n1,survivor count,"dose: 100.0 mg/kg/injection, schedule: Q01DX009 (ip), vehicle: saline with Tween-80",4 of 6
same,survivor count,[2],2 of 6
c1ccc(-c2cscc2-c2ccccc2)cc1,survivor count,[3],6 of 6
same,survivor count,[6],6 of 6
NC(CC(=O)CCl)C(=O)O (configuration not stated),T/C,"dose: 6.25 mg/kg/injection, schedule: Q04DX003 (ip), vehicle: Klucel (hydroxypropylcellulose) (HPC)",146 % of control
same,survivor count,"dose: 50.0 mg/kg/injection, schedule: Q04DX003 (ip), vehicle: Klucel (hydroxypropylcellulose) (HPC)",6 of 6
same,survivor count,"dose: 100.0 mg/kg/injection, schedule: Q04DX003 (ip), vehicle: Klucel (hydroxypropylcellulose) (HPC)",1 of 6
